Reference: publication doi:10.1101/2021.09.27.461997
No constants are given. Whether binding was seen depends on the method and setting. For part of these data: Binding seen in cells or lysates may run through a third protein. Some results given as binding are weak or reduced against the parent protein; the word gives no strength. For part of these data: Sequences can lack the tags named with a protein.

Tests used:
[1] = biological target: AtLORE-Km (kinase-mutated AtLORE, K516A in the conserved ATP binding site), full length (Arabidopsis thaliana) (UniProt O64782); experiment: split reporter
[2] = biological target: AtLORE-Km (kinase-mutated AtLORE, K516A in the conserved ATP binding site), full length (Arabidopsis thaliana) (UniProt O64782); experiment: FRET or BRET
[3] = biological target: AtLORE-Km (kinase-mutated AtLORE, K516A in the conserved ATP binding site), full length (Arabidopsis thaliana) (UniProt O64782); experiment: co-IP
[4] = biological target: AtLORE-ECD (apoplastic, soluble extracellular domain of AtLORE) (Arabidopsis thaliana) (UniProt O64782); experiment: co-IP
[5] = biological target: LIPOOLIGO…-SPECIFIC REDUCED …ON (LORE) from Arabidopsis thaliana, kinase-active, full length (Arabidopsis thaliana) (UniProt O64782); experiment: co-IP
[6] = biological target: AtLORE-ECD with N-terminal Twin-strep-tag, purified (Arabidopsis thaliana) (UniProt O64782); experiment: SEC

AtLORE-Km (kinase-mutated AtLORE, K516A in the conserved ATP binding site), full length (from UniProt O64782 22-805) (receptor)
binding [1]: binds | binding [2]: binds | binding [3]: binds | binding [4]: binds weakly

B1: LIPOOLIGO…-SPECIFIC REDUCED …ON (LORE) from Arabidopsis thaliana, kinase-active, full length (receptor, UniProt O64782 22-805)
chain: AINTSSPLSIRQTLSSPGGFYELGFFSPNNTQNQYVGIWFKKIVPRVVVWVANRDTPVTSSAANLTISSNGSLILLDGKQDVIWSTGKAFTSNKCHAELLDTGNFVVIDDVSGNKLWQSFEHLGNTMLPQSSLMYDTSNGKKRVLTTWKSNSDPSPGEFSLEITPQIPTQGLIRRGSVPYWRCGPWAKTRFSGISGIDASYVSPFSVVQDTAAGTGSFSYSTLRNYNLSYVTLTPEGKMKILWDDGNNWKLHLSLPENPCDLYGRCGPYGLCVRSDPPKCECLKGFVPKSDEEWGKGNWTSGCVRRTKLSCQAKSSMKTQGKDTDIFYRMTDVKTPDLHQFASFLNAEQCYQGCLGNCSCTAFAYISGIGCLVWNGELADTVQFLSSGEFLFIRLASSELAGSSRRKIIVGTTVSLSIFLILVFAAIMLWRYRAKQNDAWKNGFERQDVSGVNFFEMHTIRTATNNFSPSNKLGQGGFGPVYKGKLVDGKEIGVKRLASSSGQGTEEFMNEITLISKLQHRNLVRLLGYCIDGEEKLLIYEFMVNKSLDIFIFDPCLKFELDWPKRFNIIQGIARGLLYLHRDSRLRVIHRDLKVSNILLDDRMNPKISDFGLARMFQGTQYQDNTRRVVGTLGYMSPEYAWAGLFSEKSDIYSFGVLMLEIISGKRISRFIYGDESKGLLAYTWDSWCETGGSNLLDRDLTDTCQAFEVARCVQIGLLCVQHEAVDRPNTLQVLSMLTSATDLPVPKQPIFAVHTLNDMPMLQANSQDFLSVNEMTESMIQGR
binding [5]: binds

B2: AtLORE-ECD with N-terminal Twin-strep-tag, purified (domain or fragment, UniProt O64782 22-428)
chain: AINTSSPLSIRQTLSSPGGFYELGFFSPNNTQNQYVGIWFKKIVPRVVVWVANRDTPVTSSAANLTISSNGSLILLDGKQDVIWSTGKAFTSNKCHAELLDTGNFVVIDDVSGNKLWQSFEHLGNTMLPQSSLMYDTSNGKKRVLTTWKSNSDPSPGEFSLEITPQIPTQGLIRRGSVPYWRCGPWAKTRFSGISGIDASYVSPFSVVQDTAAGTGSFSYSTLRNYNLSYVTLTPEGKMKILWDDGNNWKLHLSLPENPCDLYGRCGPYGLCVRSDPPKCECLKGFVPKSDEEWGKGNWTSGCVRRTKLSCQAKSSMKTQGKDTDIFYRMTDVKTPDLHQFASFLNAEQCYQGCLGNCSCTAFAYISGIGCLVWNGELADTVQFLSSGEFLFIRLASSELAGSSRRK
binding [6]: no binding
